# Patent US10793526B2, “Hydantoin derivative compounds, methods of use and methods of treatment” (University of South Florida, priority 2016, dated 2020)
# System: red blood cells (RBCs) of mice
# Test: Hemolytic assay
# Format: cell-based
# Conditions: selectivity index, MRSA MIC vs hemolytic activity
# Protocol: Fresh red blood cells (RBCs) of mice were washed with 1×PBS buffer and centrifuged 10 min at 3500 rpm for 3 times until the supernatant was clear, then RBCs were diluted into 5% v/v suspension in 1×PBS. 50 μL compounds in PBS were 2-fold serially diluted in a 96-well plate, and incubated with 50 μL RBCs suspension for 1 h at 37° C. The mixture was then centrifuged for 10 min at 3500 rpm. Subsequently, 30 μL of the supernatant was added to 100 μL PBS, then the absorbance of mixture was read on a Biotek Synergy HT plate reader at 540 nm. The hemolytic activity was calculated by the formula % hemolysis=(Abssample−AbsPBS)/(AbsTriton−AbsPBS)×100%. 1% Triton X-100 were used as the positive control and 1×PBS buffer was used as the negative control.
smiles,measurement,value
"CCCCCCCCCCCC(=O)N[C@@H](CCCCN)CN1CC(=O)N(c2cccc(Cl)c2)C1=O [Compound 22, (S)—N-(6-amino-1-(3-(3-chlorophenyl)-2,4-dioxoimidazolidin-1-yl)hexan-2-yl)dodecanamide]",SI (HC50/MIC),190
